This assay has as its target GhMPK20 (GAL4 DNA-binding domain fusion, pGBKT7) (Gossypium hirsutum (cotton)) (UniProt S4S5K8). The assay can be described thus: two-hybrid.

No constants are given. Whether binding was seen depends on the method and setting. A result given as binding can be weak or reduced; the word gives no strength.

Data on one substance can be found in PMC3991585.

As to “GhWRKY40 (GAL4 activation domain fusion, pGADT7) (from UniProt A0A023INS2)”, the binding result was “binds”.
